{"sequences": {"note": "Sequences of proteins named here, by UniProt entry; tags and fusion partners are left off. A change or cut given only in a name is not applied to a line headed by its entry.", "UniProt Q9Z120": "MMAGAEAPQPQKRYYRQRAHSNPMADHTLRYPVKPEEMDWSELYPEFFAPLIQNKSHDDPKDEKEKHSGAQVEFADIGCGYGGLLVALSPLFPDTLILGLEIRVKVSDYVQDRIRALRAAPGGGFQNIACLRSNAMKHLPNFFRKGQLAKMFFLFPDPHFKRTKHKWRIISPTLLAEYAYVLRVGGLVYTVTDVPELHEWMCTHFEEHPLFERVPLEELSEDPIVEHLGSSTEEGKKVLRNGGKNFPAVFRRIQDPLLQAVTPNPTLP", "UniProt Q9Z0H7": "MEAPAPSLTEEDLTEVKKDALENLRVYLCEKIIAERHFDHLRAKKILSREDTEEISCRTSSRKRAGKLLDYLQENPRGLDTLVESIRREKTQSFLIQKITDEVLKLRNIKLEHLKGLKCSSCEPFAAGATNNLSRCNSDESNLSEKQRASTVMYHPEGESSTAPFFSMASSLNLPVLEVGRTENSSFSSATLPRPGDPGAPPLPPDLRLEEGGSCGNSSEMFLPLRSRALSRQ", "UniProt Q9Z1Y4, whole entry": "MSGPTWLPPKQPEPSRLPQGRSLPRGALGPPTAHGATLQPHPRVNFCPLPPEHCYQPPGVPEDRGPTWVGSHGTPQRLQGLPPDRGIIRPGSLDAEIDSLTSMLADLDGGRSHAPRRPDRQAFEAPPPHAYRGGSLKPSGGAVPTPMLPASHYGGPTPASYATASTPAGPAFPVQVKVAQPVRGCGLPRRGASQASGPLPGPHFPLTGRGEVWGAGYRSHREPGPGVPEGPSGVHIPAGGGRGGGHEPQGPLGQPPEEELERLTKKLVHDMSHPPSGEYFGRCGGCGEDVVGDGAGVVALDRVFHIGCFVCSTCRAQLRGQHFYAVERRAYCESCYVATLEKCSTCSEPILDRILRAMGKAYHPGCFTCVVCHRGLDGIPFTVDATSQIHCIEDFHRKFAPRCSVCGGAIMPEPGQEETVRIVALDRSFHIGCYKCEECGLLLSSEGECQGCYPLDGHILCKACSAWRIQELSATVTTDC", "UniProt Q9WVM8": "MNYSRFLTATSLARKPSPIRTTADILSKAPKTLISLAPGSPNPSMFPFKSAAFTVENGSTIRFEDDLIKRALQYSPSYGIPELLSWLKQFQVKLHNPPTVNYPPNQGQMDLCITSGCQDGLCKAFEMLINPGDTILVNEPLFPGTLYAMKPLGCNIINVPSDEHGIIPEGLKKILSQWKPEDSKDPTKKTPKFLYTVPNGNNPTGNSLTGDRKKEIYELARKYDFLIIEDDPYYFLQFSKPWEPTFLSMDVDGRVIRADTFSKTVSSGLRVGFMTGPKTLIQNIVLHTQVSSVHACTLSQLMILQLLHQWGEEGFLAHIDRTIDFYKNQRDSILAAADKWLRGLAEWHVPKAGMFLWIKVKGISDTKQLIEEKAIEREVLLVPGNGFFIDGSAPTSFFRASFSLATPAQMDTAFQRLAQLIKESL", "UniProt Q9Z315": "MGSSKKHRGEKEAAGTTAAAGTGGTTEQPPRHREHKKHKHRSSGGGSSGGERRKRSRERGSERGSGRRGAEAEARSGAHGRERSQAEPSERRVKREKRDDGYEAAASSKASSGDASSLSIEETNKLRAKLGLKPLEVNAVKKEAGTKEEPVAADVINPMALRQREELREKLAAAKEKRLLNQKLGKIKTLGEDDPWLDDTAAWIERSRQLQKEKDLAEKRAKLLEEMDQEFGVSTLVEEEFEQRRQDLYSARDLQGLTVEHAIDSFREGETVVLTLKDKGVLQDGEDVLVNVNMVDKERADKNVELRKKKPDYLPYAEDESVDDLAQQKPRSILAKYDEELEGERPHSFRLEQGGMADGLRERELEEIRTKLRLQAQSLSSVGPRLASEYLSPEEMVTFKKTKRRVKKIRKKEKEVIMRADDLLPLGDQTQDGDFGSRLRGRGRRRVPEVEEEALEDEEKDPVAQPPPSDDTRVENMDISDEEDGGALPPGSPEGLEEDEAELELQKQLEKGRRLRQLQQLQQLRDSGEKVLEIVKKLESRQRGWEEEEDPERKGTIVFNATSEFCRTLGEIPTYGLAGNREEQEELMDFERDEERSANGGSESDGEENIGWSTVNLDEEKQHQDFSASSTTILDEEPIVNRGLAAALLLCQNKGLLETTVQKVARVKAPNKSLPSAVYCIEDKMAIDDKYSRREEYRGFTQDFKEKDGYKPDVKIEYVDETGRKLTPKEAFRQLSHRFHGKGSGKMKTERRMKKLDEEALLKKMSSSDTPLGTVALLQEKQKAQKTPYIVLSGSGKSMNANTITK", "UniProt Q9Z1B8": "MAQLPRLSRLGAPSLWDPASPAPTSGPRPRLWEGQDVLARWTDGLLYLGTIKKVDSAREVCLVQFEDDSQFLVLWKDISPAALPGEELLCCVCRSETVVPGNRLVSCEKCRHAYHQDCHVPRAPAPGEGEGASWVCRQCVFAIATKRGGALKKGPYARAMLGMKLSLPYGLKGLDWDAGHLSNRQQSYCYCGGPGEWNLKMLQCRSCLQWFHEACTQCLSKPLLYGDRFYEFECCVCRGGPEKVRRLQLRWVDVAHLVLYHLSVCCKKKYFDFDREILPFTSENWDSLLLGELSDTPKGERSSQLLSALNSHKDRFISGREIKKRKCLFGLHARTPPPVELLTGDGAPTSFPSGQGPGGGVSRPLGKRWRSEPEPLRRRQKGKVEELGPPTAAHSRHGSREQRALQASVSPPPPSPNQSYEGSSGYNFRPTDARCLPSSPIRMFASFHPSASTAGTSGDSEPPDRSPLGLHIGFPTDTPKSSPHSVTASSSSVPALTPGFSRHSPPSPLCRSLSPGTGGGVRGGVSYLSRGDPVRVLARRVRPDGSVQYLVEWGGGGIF", "UniProt Q9Z0J0": "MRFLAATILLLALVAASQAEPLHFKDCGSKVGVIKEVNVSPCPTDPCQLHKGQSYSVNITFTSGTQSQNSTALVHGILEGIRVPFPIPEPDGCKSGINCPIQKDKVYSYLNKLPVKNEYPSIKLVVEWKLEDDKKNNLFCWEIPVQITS", "UniProt Q9WVG6": "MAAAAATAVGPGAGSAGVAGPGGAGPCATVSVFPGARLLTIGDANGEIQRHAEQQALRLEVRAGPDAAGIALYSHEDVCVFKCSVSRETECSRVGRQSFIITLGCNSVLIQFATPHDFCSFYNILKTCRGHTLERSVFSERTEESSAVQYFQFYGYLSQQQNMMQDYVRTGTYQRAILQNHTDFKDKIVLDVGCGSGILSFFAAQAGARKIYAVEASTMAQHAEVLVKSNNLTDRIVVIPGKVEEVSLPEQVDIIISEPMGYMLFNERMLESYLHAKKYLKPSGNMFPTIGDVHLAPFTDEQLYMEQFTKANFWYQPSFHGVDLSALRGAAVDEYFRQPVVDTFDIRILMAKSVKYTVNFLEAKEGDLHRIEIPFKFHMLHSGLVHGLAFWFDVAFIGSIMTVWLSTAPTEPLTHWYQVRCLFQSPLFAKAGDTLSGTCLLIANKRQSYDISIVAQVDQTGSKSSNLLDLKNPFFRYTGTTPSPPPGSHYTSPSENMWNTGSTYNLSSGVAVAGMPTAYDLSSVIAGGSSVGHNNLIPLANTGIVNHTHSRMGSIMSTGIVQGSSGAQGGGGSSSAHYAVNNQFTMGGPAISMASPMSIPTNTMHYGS", "UniProt Q9Z2D1, whole entry": "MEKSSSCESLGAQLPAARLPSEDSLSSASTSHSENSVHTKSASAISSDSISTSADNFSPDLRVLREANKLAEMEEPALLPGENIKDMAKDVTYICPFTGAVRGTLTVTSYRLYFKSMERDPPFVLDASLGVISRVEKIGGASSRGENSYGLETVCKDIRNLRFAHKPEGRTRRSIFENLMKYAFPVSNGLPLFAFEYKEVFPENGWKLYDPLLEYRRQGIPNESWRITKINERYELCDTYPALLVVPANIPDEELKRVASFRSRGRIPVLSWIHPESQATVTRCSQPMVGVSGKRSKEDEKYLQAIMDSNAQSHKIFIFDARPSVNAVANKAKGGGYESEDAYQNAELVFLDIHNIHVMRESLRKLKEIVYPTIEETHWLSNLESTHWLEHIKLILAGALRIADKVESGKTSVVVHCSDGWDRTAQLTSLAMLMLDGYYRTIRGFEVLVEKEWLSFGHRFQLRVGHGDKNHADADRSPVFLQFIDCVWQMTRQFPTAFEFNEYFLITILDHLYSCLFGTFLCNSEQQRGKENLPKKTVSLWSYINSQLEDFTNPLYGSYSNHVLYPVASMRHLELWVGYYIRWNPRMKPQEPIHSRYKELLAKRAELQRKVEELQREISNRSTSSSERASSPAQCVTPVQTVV", "UniProt Q9Z126": "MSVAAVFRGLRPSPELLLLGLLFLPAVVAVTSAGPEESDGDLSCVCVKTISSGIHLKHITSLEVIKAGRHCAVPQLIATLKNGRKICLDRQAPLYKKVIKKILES", "UniProt Q9WVF7": "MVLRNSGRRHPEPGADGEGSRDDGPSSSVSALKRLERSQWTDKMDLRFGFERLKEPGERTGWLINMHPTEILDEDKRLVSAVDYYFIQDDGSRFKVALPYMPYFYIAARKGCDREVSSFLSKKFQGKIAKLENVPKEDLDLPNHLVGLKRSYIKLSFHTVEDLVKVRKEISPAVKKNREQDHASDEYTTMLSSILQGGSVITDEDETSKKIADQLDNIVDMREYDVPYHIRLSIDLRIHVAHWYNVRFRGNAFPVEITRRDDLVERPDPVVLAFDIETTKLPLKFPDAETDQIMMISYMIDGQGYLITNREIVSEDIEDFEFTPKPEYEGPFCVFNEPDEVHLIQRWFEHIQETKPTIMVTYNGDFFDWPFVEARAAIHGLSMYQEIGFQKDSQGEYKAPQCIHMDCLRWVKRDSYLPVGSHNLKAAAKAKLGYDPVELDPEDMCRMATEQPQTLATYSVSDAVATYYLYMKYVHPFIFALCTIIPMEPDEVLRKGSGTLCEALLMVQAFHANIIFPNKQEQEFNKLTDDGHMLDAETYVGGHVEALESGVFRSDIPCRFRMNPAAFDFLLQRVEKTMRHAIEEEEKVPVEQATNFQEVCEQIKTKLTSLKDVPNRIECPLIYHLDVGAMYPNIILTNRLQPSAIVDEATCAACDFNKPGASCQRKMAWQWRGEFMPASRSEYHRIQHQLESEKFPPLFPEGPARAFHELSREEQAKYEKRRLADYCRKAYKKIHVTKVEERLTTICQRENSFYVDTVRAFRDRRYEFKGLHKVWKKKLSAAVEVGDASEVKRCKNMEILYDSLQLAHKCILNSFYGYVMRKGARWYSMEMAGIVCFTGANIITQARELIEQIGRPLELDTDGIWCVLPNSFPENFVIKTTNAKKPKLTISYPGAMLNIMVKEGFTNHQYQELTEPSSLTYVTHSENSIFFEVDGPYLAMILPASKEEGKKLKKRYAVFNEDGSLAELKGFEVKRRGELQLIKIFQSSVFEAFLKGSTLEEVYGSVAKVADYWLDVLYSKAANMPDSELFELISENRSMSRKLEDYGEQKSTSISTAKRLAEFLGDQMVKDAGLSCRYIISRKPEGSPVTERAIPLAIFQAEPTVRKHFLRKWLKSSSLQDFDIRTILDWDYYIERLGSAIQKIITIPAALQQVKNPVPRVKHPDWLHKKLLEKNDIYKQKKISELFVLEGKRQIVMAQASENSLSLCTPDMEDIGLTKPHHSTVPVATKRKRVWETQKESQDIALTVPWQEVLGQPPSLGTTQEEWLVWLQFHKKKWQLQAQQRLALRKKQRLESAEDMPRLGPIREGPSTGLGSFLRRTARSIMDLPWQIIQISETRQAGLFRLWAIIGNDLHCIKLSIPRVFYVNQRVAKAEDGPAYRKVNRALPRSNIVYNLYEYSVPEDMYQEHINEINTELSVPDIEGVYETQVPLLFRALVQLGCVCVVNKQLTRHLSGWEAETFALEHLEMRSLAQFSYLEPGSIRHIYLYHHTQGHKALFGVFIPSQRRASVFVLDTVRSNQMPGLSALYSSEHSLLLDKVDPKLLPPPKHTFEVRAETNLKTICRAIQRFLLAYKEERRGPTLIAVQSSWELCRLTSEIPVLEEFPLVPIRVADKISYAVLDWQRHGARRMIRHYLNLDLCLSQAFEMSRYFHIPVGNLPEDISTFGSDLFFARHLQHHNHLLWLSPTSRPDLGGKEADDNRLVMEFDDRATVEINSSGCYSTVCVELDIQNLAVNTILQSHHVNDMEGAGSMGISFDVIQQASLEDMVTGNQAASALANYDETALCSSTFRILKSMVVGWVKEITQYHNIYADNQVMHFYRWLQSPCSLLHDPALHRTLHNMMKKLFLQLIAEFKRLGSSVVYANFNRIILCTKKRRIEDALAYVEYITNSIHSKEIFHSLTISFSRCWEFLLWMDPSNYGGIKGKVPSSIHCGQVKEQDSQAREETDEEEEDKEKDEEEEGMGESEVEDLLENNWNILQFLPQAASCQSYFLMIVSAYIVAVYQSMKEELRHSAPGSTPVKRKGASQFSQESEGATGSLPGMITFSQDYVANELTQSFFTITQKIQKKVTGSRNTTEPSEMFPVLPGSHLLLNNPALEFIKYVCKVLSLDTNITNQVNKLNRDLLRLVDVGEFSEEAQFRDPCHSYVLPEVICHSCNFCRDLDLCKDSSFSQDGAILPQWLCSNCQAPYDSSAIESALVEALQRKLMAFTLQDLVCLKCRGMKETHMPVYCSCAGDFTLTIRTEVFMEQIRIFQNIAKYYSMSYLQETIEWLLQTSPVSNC"}, "source": "the supplement of paper PMC12819154", "about": "“High-throughput peptide-centric local stability assay extends protein–ligand identification to membrane proteins, tissues and bacteria” (Nature Structural & Molecular Biology, 2025)", "note": "The other results are listed elsewhere or left out. Most entries show no effect beyond the scatter of the controls."}
{"compound": "CN[C@@H]1C[C@H]2O[C@@](C)([C@@H]1OC)n1c3ccccc3c3c4c(c5c6ccccc6n2c5c31)C(=O)NC4 [staurosporine]", "experiment": "log2 fold change of tryptic peptide abundance, ligand vs vehicle (limited proteolysis) (log2 ratio); higher = more trypsin-susceptible (destabilized)", "conditions": "ligand concentration: 20 uM; sample: mouse liver crude lysate; replicate design: treated separately"}
{"target": "UniProt Q9WVE8 (peptide sequence: ASLMNEDFEK, peptide start residue: 102)", "log2 fold change": -0.371}
{"target": "UniProt Q9Z0F4 (peptide sequence: TVEESLHTR, peptide start residue: 44)", "log2 fold change": -0.376}
{"target": "UniProt Q9Z120 (peptide sequence: SHDDPKDEKEK, peptide start residue: 56)", "log2 fold change": 0.321}
{"target": "UniProt Q9Z0H7 (peptide sequence: GLDTLVESIR, peptide start residue: 78)", "log2 fold change": -0.264}
{"target": "UniProt Q9Z1Y4 (peptide sequence: GALGPPTAHGATLQPHPR, peptide start residue: 26)", "log2 fold change": -0.109}
{"target": "UniProt Q9Z0P7 (peptide sequence: GLEINSKPVLPPINSQR, peptide start residue: 315)", "log2 fold change": 0.102}
{"target": "UniProt Q9Z2K1 (peptide sequence: ADLEMQIENLR, peptide start residue: 231)", "log2 fold change": 0.0735}
{"target": "UniProt Q9WVM8 (peptide sequence: ILSQWKPEDSKDPTK, peptide start residue: 174)", "log2 fold change": -0.285}
{"target": "UniProt Q9Z0G9 (peptide sequence: STGPGTGTGTAYDR, peptide start residue: 202)", "log2 fold change": -0.0655}
{"target": "UniProt Q9Z2A5 (peptide sequence: GSIESEEKEKEK, peptide start residue: 148)", "log2 fold change": -0.103}
{"target": "UniProt Q9WVR4 (peptide sequence: GGSGGGSDKAGYTTDESSSSSLHTTR, peptide start residue: 400)", "log2 fold change": 0.468}
{"target": "UniProt Q9Z315 (peptide sequence: ADKNVELR, peptide start residue: 300)", "log2 fold change": -0.261}
{"target": "UniProt Q9WVA4 (peptide sequence: NFSDNQLQEGK, peptide start residue: 161)", "log2 fold change": 0.0887}
{"target": "UniProt Q9Z1W9 (peptide sequence: EGPCAVNLVLR, peptide start residue: 458)", "log2 fold change": -0.609}
{"target": "UniProt Q9Z1B8 (peptide sequence: GLDWDAGHLSNR, peptide start residue: 173)", "log2 fold change": 0.111}
{"target": "UniProt Q9Z0J0 (peptide sequence: EVNVSPCPTDPCQLHK, peptide start residue: 36)", "log2 fold change": 0.0249}
{"target": "UniProt Q9Z266 (peptide sequence: VALDLDPYVK, peptide start residue: 74)", "log2 fold change": -0.352}
{"target": "UniProt Q9Z0Y1 (peptide sequence: YLDPEYIDR, peptide start residue: 67)", "log2 fold change": 0.0881}
{"target": "UniProt Q9WVG6 (peptide sequence: SSNLLDLKNPFFR, peptide start residue: 464)", "log2 fold change": -0.426}
{"target": "UniProt Q9Z1B3 (peptide sequence: TTELIKEHTTK, peptide start residue: 941)", "log2 fold change": 0.392}
{"target": "UniProt Q9Z2D1 (peptide sequence: LPSEDSLSSASTSHSENSVHTK, peptide start residue: 19)", "log2 fold change": 0.464}
{"target": "UniProt Q9Z1X4 (peptide sequence: HAGKKPLHGGQQK, peptide start residue: 731)", "log2 fold change": -0.803}
{"target": "UniProt Q9Z2D0 (peptide sequence: YHVLQESLIK, peptide start residue: 271)", "log2 fold change": 0.189}
{"target": "UniProt Q9Z0U0 (peptide sequence: YNQSISLR, peptide start residue: 662)", "log2 fold change": 0.09}
{"target": "UniProt Q9Z2V5 (peptide sequence: TIAALPGKESTLGQAK, peptide start residue: 881)", "log2 fold change": -0.259}
{"target": "UniProt Q9Z1M8 (peptide sequence: LTNEDFRK, peptide start residue: 31)", "log2 fold change": -0.74}
{"target": "UniProt Q9Z0H1 (peptide sequence: LGYDPDAK, peptide start residue: 539)", "log2 fold change": -0.113}
{"target": "UniProt Q9Z126 (peptide sequence: HCAVPQLIATLK, peptide start residue: 70)", "log2 fold change": 0.174}
{"target": "UniProt Q9WVF7 (peptide sequence: RYEFKGLHK, peptide start residue: 765)", "log2 fold change": 0.411}
{"target": "UniProt Q9Z108 (peptide sequence: AQGFQVEYK, peptide start residue: 409)", "log2 fold change": 0.141}
{"target": "UniProt Q9Z2Q2 (peptide sequence: VSVENSLK, peptide start residue: 235)", "log2 fold change": 0.33}
